In this test the target is Rpt1/PSMC2 (human (endogenous in HEK293A)) (UniProt P35998). As to the kind of experiment: co-IP.

The chains behind the UniProt entries cited, without tags or fusion partners.
UniProt P35998: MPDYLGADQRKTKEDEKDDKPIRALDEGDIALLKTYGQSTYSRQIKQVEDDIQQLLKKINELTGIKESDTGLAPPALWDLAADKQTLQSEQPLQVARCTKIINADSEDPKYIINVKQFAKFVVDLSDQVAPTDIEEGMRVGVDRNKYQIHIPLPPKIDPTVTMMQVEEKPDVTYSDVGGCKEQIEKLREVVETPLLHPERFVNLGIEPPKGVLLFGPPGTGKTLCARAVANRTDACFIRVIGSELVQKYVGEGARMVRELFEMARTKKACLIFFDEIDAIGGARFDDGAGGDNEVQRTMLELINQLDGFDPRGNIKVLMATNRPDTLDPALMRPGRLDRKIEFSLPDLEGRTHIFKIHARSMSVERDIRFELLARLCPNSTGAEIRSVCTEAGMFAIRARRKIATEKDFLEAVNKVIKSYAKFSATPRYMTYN
UniProt O00487: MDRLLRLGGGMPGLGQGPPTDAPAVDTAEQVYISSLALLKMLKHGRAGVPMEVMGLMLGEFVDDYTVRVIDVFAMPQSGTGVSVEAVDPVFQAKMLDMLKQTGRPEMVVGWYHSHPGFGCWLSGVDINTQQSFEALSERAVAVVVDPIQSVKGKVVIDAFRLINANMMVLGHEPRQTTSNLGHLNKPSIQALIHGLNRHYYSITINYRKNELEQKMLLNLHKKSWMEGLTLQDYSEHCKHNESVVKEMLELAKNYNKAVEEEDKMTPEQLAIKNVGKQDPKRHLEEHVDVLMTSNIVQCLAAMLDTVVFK

Results are given in words; binding and its absence hold for the method and conditions named. In cells and extracts the contact can be indirect. Some binding calls cover weakened binding; strength is not graded here.

As to “Rpn11 (unmodified, endogenous) (from UniProt O00487 1-310)”, the binding entry was “binds”.

As to Rpn11-eGFP (from UniProt O00487 1-310), the binding result is listed as “binds”.

Rpn11-mEos (from UniProt O00487 1-310): the binding result is “binds”.
